The values below come from paper doi:10.1101/518597.

Results are given in words; binding and its absence hold for the method and conditions named. In cells and extracts the contact can be indirect. Binding can be weak; no strength is given.

Assay [1] addresses T1, endogenous SYNPO (synaptopodin) of mature rat cortical neurons (rat (endogenous in primary cortical neurons)) (UniProt Q9Z327).
T1 sequence: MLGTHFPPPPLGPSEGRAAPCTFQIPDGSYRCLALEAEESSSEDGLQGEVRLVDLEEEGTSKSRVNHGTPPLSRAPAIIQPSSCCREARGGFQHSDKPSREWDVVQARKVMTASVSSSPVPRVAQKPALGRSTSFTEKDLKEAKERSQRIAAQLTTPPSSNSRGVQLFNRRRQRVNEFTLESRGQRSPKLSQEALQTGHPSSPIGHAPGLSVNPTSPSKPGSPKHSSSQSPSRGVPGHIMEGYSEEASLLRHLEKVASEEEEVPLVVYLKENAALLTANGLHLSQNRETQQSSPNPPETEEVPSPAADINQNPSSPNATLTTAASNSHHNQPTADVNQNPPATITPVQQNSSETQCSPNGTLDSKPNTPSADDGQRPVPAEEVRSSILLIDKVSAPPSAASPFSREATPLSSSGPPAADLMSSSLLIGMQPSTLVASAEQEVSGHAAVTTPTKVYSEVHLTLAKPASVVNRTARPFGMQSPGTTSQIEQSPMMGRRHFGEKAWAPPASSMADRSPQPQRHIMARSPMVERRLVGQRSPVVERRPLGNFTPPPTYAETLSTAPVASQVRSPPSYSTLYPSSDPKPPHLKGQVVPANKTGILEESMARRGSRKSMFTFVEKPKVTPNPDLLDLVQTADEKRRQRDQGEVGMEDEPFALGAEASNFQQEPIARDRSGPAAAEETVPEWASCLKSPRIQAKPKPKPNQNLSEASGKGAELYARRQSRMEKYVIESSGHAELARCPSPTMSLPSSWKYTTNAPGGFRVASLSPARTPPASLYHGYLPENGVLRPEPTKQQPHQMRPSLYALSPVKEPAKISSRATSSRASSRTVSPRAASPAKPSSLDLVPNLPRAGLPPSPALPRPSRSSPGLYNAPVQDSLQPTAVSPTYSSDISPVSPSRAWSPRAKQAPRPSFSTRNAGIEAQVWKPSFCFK
The experiment in a line: co-IP.

The target of assay [2] is endogenous BAG3 of mature rat cortical neurons (rat (endogenous in primary cortical neurons)). The experiment in a line: co-IP.

“endogenous BAG3 of mature rat cortical neurons”: the binding result in assay [1] is listed as “binds”.

B1: endogenous SYNPO (synaptopodin) of mature rat cortical neurons (protein, UniProt Q9Z327 1-931)
chain: T1 sequence
As to B1, the binding result in assay [2] was “binds”.
